According to patent US20150174203A1:
No constants are given. Whether binding was seen depends on the method and setting. For part of these data: Binding seen in cells or lysates may run through a third protein. Some results given as binding are weak or reduced against the parent protein; the word gives no strength. Tags and fused reporters may be left off the sequences shown.

Protein sequences, listed by entry. Tags and fused reporters are not part of them. Lines headed by an entry give the natural chain unless they say otherwise; changes in a name come on top.
UniProt O75022: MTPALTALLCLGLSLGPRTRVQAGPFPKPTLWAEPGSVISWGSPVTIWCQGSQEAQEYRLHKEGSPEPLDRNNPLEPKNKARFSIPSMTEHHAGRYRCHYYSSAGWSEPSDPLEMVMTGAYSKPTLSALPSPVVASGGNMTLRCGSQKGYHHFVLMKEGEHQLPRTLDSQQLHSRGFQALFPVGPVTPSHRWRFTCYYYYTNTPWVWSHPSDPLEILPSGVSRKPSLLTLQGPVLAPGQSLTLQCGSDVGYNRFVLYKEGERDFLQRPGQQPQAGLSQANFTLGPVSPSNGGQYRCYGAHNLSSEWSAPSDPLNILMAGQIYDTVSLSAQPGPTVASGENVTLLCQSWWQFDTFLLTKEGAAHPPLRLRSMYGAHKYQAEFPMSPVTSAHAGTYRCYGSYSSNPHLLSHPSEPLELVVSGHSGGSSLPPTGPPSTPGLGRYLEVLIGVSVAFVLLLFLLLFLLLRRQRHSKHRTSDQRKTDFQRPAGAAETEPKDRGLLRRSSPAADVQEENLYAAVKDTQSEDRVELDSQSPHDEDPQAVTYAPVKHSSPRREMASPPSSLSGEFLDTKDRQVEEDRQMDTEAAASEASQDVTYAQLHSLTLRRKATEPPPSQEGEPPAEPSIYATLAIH
UniProt O75023: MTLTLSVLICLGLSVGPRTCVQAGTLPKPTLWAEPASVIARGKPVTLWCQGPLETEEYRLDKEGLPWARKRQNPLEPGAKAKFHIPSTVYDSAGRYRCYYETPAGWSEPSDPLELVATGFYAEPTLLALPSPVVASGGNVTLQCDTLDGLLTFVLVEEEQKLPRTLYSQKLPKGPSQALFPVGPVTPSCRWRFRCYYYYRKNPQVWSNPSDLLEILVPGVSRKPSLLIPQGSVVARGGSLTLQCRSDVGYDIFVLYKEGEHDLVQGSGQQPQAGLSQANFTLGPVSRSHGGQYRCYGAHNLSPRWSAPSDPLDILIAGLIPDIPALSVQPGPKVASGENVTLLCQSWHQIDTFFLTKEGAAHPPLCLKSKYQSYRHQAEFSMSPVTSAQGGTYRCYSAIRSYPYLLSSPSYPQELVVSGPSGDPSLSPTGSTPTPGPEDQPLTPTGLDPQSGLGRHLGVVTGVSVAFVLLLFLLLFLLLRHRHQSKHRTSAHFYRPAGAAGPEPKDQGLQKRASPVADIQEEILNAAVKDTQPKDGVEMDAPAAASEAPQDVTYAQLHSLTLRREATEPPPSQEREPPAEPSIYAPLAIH

How the values were obtained:
[1] = biological target: human LILRB2 (human) (UniProt Q8N423); test: flow cytometry on human cord blood cells
[2] = biological target: human LILRB2 (human) (UniProt Q8N423); test: flow cytometry, LILRB2-transfected 293T cells and human cord blood LILRB2+ cells
[3] = biological target: T1, mouse LAIR1 (mouse) (UniProt Q8BG84); test: flow cytometry on LAIR1-transfected 293T cells, anti-FLAG-APC and anti-LAIR1-PE
T1 sequence (looked up): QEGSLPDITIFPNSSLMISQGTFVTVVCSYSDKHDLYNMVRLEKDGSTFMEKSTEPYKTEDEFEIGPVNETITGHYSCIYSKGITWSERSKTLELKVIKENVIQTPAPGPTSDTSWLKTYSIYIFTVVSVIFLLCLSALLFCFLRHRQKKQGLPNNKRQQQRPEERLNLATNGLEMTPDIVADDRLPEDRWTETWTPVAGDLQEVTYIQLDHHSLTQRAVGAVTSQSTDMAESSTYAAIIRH

[4] = biological target: human LILRB2 (human) (UniProt Q8N423); test: relative binding to LILRB2+ human cord blood cells from flow cytometry, compared with control, n=3
[5] = biological target: human LILRB2 (human) (UniProt Q8N423); test: flow cytometry on human cord blood LILRB2+ cells
[6] = biological target: LILRB3 (human) (UniProt O75022); test: flow cytometry on transfected 293T cells
[7] = biological target: LILRB5 (human) (UniProt O75023); test: flow cytometry on transfected 293T cells
[8] = biological target: human LILRB2 (human) (UniProt Q8N423); test: flow cytometry on LILRB2-expressing cells
[9] = biological target: T2, paired immunoglobulin-like receptor B (PirB) (mouse) (UniProt P97484); test: flow cytometry on PirB-transfected 293T cells
T2 sequence (looked up): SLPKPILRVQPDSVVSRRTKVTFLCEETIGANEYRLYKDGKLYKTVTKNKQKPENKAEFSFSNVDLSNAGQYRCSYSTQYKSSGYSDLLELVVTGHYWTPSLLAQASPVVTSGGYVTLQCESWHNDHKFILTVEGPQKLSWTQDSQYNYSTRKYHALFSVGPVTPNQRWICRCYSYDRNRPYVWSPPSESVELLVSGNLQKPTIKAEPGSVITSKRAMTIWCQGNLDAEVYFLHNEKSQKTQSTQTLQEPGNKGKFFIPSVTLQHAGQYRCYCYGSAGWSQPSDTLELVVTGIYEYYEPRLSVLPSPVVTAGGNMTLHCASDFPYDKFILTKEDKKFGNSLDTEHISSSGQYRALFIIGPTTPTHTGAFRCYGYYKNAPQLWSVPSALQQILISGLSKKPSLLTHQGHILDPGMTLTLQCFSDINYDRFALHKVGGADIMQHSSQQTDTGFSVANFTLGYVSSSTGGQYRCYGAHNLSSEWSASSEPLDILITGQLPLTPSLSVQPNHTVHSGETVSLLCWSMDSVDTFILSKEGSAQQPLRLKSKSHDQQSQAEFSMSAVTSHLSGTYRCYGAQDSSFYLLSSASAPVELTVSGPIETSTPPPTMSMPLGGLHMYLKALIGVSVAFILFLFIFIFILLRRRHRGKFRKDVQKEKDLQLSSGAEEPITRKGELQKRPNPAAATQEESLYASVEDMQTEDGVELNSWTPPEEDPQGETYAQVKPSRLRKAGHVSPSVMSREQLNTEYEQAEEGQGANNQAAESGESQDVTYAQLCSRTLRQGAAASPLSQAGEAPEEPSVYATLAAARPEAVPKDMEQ

[10] = biological target: human LILRB2 (human) (UniProt Q8N423); test: flow cytometry on LILRB2-overexpressing 293T cells
[11] = biological target: human LILRB2 (human) (UniProt Q8N423); test: summary of binding to LILRB2; method not given in the table
[12] = biological target: T3, PirB extracellular domain fused to human Fc (mouse; human) (UniProt P97484); test: co-IP from conditioned medium of co-transfected 293T cells
T3 sequence (looked up): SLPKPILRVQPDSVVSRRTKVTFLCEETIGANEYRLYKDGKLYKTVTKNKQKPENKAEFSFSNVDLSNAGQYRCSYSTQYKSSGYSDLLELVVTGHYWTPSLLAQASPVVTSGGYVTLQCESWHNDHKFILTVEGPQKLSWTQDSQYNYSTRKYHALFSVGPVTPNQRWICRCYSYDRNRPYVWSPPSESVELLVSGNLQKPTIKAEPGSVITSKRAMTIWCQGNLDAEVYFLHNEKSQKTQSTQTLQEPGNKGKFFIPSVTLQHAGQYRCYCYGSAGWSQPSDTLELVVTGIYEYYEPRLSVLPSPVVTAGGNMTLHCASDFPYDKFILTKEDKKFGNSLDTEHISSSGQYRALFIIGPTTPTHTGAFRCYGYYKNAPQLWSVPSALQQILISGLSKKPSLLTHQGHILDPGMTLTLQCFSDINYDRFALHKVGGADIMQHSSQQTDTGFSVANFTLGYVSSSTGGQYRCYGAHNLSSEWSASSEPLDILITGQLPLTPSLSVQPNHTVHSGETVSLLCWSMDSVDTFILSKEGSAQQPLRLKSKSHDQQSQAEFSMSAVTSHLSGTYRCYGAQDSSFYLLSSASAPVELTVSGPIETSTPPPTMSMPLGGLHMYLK

[13] = biological target: T2, paired immunoglobulin-like receptor B (PirB) (mouse); test: flow cytometry on WT and PIR-B KO mouse MDSCs, anti-Flag-FITC
[14] = biological target: T4, LILRB2 extracellular domain fused to human IgG-Fc (human) (UniProt Q8N423); test: co-transfection in 293T cells, IP with protein A, Western blot
T4 sequence: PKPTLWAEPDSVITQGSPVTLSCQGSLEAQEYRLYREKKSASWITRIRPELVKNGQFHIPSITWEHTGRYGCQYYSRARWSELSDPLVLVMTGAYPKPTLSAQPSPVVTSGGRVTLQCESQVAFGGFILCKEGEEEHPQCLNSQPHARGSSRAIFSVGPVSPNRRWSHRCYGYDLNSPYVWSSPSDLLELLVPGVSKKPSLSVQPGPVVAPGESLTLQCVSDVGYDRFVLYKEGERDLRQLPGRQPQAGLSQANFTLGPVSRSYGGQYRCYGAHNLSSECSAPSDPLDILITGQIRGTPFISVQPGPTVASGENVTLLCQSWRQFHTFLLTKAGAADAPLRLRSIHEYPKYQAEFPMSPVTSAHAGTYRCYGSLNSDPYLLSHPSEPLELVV

[15] = biological target: T4, LILRB2 extracellular domain fused to human IgG-Fc (human); test: in vitro co-IP of purified proteins, protein A beads, Western blot
[16] = biological target: T2, paired immunoglobulin-like receptor B (PirB) (mouse); test: flow cytometry, MDSCs of WT or PIR-B KO mice, pre-incubated with vehicle or GA (50 ug/mL), stained with angptl-2-Flag plus anti-Flag-FITC; GA and vehicle traces cannot be told apart on the scan
[17] = biological target: T4, LILRB2 extracellular domain fused to human IgG-Fc (human); test: in vivo co-IP
[18] = biological target: T4, LILRB2 extracellular domain fused to human IgG-Fc (human); test: in vivo co-IP (Table 2)

Measured: binding

B1: human Angptl-1 with FLAG tag at the C-terminus (ligand, not shown: small tags and cut ends)
chain: GQFKIKKINQRRYPRATDGKEEAKKCAYTFLVPEQRITGPICVNTKGQDASTIKDMITRMDLENLKDVLSRQKREIDVLQLVVDVDGNIVNEVKLLRKESRNMNSRVTQLYMQLLHEIIRKRDNSLELSQLENKILNVTTEMLKMATRYRELEVKYASLTDLVNNQSVMITLLEEQCLRIFSRQDTHVSPPLVQVVPQHIPNSQQYTPGLLGGNEIQRDPGYPRDLMPPPDLATSPTKSPFKIPPVTFINEGPFKDCQQAKEAGHSVSGIYMIKPENSNGPMQLWCENSLDPGGWTVIQKRTDGSVNFFRNWENYKKGFGNIDGEYWLGLENIYMLSNQDNYKLLIELEDWSDKKVYAEYSSFRLEPESEFYRLRLGTYQGNAGDSMMWHNGKQFTTLDRDKDMYAGNCAHFHKGGWWYNACAHSNLNGVWYRGGHYRSKHQDGIFWAEYRGGSYSLRAVQMMIKPID
binds: [1] | [2] | [3] | [4]

B2: GST-Angptl-1 (ligand, not shown: a dimerising Fc or GST; small tags and cut ends)
chain: B1 chain
binds: [5]

B3: human Angptl-2 with FLAG tag at the C-terminus, mammalian-expressed (ligand, not shown: small tags and cut ends)
chain: QEDGFEGTEEGSPREFIYLNRYKRAGESQDKCTYTFIVPQQRVTGAICVNSKEPEVLLENRVHKQELELLNNELLKQKRQIETLQQLVEVDGGIVSEVKLLRKESRNMNSRVTQLYMQLLHEIIRKRDNALELSQLENRILNQTADMLQLASKYKDLEHKYQHLATLAHNQSEIIAQLEEHCQRVPSARPVPQPPPAAPPRVYQPPTYNRIINQISTNEIQSDQNLKVLPPPLPTMPTLTSLPSSTDKPSGPWRDCLQALEDGHDTSSIYLVKPENTNRLMQVWCDQRHDPGGWTVIQRRLDGSVNFFRNWETYKQGFGNIDGEYWLGLENIYWLTNQGNYKLLVTMEDWSGRKVFAEYASFRLEPESEYYKLRLGRYHGNAGDSFTWHNGKQFTTLDRDHDVYTGNCAHYQKGGWWYNACAHSNLNGVWYRGGHYRSRYQDGVYWAEFRGGSYSLKKVVMMIRPNPNTFH
not listed: [3] | [5] | [17] | [18]
binds: all other assays above

B4: untagged Angptl-2, mammalian-expressed (ligand)
chain: B3 chain
binds: [17] | [18]
